## Library screen at single concentrations

The chains behind the UniProt entries cited, without tags or fusion partners. Residues count along the entry.
UniProt Q4DA54, 1-478: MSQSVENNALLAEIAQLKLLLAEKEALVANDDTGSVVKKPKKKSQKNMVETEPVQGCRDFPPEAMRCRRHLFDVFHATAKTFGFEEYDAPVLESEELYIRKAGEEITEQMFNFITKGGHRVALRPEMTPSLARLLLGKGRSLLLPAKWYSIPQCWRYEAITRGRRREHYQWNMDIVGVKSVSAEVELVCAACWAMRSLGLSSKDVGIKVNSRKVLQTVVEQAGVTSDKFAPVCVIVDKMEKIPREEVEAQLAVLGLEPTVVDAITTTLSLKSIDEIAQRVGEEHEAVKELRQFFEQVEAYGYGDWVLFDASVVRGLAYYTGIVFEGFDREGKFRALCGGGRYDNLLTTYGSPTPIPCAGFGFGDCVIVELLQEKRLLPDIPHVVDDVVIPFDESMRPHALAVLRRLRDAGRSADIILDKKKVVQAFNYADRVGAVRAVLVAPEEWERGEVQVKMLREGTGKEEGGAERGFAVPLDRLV
UniProt Q8IDJ8, 1-583: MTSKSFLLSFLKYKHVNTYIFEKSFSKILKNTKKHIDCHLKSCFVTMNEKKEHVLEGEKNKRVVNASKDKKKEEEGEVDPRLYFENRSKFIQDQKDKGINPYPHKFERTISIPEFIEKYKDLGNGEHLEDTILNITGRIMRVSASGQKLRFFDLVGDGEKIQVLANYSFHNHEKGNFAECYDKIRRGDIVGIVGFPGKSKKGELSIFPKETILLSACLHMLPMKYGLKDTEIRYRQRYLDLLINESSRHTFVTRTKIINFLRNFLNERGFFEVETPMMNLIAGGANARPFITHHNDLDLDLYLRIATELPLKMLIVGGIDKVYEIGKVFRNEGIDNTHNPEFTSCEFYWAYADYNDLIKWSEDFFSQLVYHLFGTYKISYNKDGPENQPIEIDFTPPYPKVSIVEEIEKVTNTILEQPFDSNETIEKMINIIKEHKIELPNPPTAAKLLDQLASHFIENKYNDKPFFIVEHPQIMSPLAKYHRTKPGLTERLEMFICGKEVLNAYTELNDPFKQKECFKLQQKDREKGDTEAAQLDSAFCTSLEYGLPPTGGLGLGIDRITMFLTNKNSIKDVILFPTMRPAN

The values are deposited in ChEMBL (CHEMBL3988442, “University of Dundee, Small-Polar-MMV Screening Library” (2021)).

A: 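Enzyme assay of histidyl-tRNA synthetase; the read-out is not stated. Target: Histidine-tRNA ligase, Trypanosoma cruzi CL Brener (UniProt Q4DA54). Concentration: 30 µM. The record gives no direction; compounds that gave an IC50 in retests scored well above the rest, so higher reads as stronger inhibition. Size under these conditions: about 69,000 compounds, about 31 of them at 50% or above in at least one test.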
B: 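Enzyme assay of the cytosolic lysyl-tRNA synthetase in 384-well plates, read by luminescence. Target: Lysine-tRNA ligase, Plasmodium falciparum 3D7 (UniProt Q8IDJ8). Tested at 30 µM. Direction is inferred from only a few compounds that gave an IC50; most scored high, so higher reads as stronger inhibition. About 69,000 compounds were tested under these conditions; 0.071% (about 49) showed 50% or more at least once.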

The filed quantity is “Percent Effect” (%).
The record does not define 0% and 100%; most values in the screen are far below 50% and negative numbers occur (in some assays of this library far below -100).
Compounds were drawn at random from those tested, without regard to their results.

structure	A	B
Cc1nnc(SCCNc2cc(C3CC3)ncn2)s1	0.8696	7.213
Cc1cnc(CNC(=O)[C@@]23CCO[C@@H]2CCN(c2ncccn2)C3)cn1	2.116	3.326
CCn1nc(C)cc1C(=O)N1C[C@@H]2C[C@@H](c3noc(C)n3)O[C@@H]2C1	8.38	3.212
COc1ccccc1CNC(=O)COc1c(C)n(C)ccc1=O	1.754	0.5334
CCNc1ncc(C(=O)NC(c2ccccc2)c2ccco2)cn1 (centres unmarked)	7.792	0.5905
CC(O)(CNc1ccc(Cl)c(C#N)n1)c1ccsc1 (centres unmarked)	6.077	58.98
CC(C(=O)Nc1sccc1C(N)=O)N(C)CCOc1ccccc1 (centres unmarked)	9.639	0.375
CN1CCN(C(=O)Cc2ccsc2)Cc2cccnc21	6.931	7.688
COC(=O)CNC(=O)C(C)Oc1ccccc1C(F)(F)F (centres unmarked)	0	0.1574
Cc1ccc(SCCN(C)C(=O)c2cn(CCN)nn2)cc1	3.896	3.314
CCn1nc(CNC(=O)C2CC(=O)N(C3CCCC3)C2)c2ccccc21 (centres unmarked)	5	1.526
CC(=O)N[C@H]1CCN2C(=O)[C@@H](Cc3c[nH]c4ccccc34)NC(=O)[C@H]12	1.087	0.4288
O=C(c1cccc(-c2ccc(F)cc2)c1)N1CCC2(CC1)[C@H](O)C[C@@H]2O	13.6	3.701
c1ccc(-c2cc(CN3CCC(c4ccn[nH]4)CC3)on2)cc1	5	0.4394
Cc1cnn(C2CN(Cc3nc(-c4ccccc4C)no3)C2)c1	2.299	-2.593
N#CC1(NC(=O)c2ccn(-c3ccccc3Cl)n2)CCSC1 (centres unmarked)	1.587	6.335
COCC1(Nc2nc(C)nc3c2cnn3C)CCCC1	8.458	0.4548
Nc1nnc(CCNC(=O)c2cccc(C3CCCNC3)c2)s1 (centres unmarked)	2.762	2.601
NC(=O)c1nc2c(s1)CCN(C(=O)Nc1ccccc1)CC2	2.222	4.22
CN(C1CCc2ccccc2C1)S(C)(=O)=O (centres unmarked)	9.574	9.566
CCn1nccc1CNc1[nH]cnc2nc(C)nc1-2	7.921	0.02241
CCOCCN1CCN(c2ccc(C#N)cn2)CC1CC (centres unmarked)	3.015	4.371
CC(O)CN1CCN(C(=O)c2ccc(Cn3cccc3)cc2)CC1 (centres unmarked)	6.767	5.25
Cn1c(CS(=O)(=O)Cc2cccc(Cl)c2)cc(=O)n(C)c1=O	1.136	2.219
COc1nc(C)c(C(=O)N(C)Cc2nc(-c3ccccn3)no2)s1	5.394	-4.917
O=C1CCc2ccccc2N1CCCn1cnnn1	0.8403	12.43
O=C1CCC(c2ccc(Cl)cc2)=NN1CN1CCSCC1	0	4.414
Cc1ccc(N(CC(=O)NCc2nnc3n2CCC3)S(C)(=O)=O)cc1	9.268	0.9349
COCCN1CCC(c2cncc(-c3ccccc3C)n2)CC1	17.02	5.383
CC(C)c1nc(CN(C)C(=O)c2cn3ccsc3n2)cs1	11	4.063
Cc1noc(C)c1C(=O)NCC(C)N1CCc2ccccc21 (centres unmarked)	10.54	0.2412
Cc1ccc(CN2CC[C@@]3(O)CCN(S(=O)(=O)N(C)C)C[C@H]3C2)cc1C	8.287	8.405
Cc1cc(CSCc2cc(C)on2)on1	-2.717	3.45
CC(C)(CO)CNC(=O)c1ccnn1-c1ccc2ccccn12	1.266	8.189
CCS(=O)(=O)N1CCOC2(CCCN(Cc3ccccn3)C2)C1 (centres unmarked)	4.444	7.254
CCOC1Sc2nnc(C)n2N=C1c1ccc(Br)cc1 (centres unmarked)	12.37	-0.1143
Cc1csc(CN2CCC3(CC2)COC(COc2ccccn2)C3)n1 (centres unmarked)	6.533	3.749
CC(C)c1nn(C)c(N(C)C)c1CNCc1ccnc(N(C)C)c1	7.182	3.891
COc1cccc(CCNS(=O)(=O)c2ccc(NC(C)=O)cc2)c1	3.261	11.43
COc1ccc(C2CCCCCN2CCCNS(C)(=O)=O)cc1 (centres unmarked)	9.714	0.7366
COCc1ncn2c1CN(C(=O)c1ccco1)CC2	4.673	2.477
OC(CNC1CCSCC1)c1cccc(OCc2ccccc2)c1 (centres unmarked)	1.98	-4.05
Cc1ccc(N2CCN(C)c3ncccc3C2)nn1	10.13	11.24
Cc1nccn1-c1cccc(C2CCCN2S(=O)(=O)c2cn(C)cn2)n1 (centres unmarked)	7.527	-5.697
CCc1cc(NCCc2cc(F)cc(F)c2)n2nccc2n1	2.439	-1.165
CN1C[C@H]2N(c3ncccn3)CCC[C@@]2(C(=O)NCC2CC2)C1	8.466	3.952
Cc1nc(C)n(CC2CCCCN2Cc2nnc(-c3ccco3)o2)n1 (centres unmarked)	8.333	2.676
c1ccc(CO[C@@H]2CN(Cc3nccs3)[C@@H]3COC[C@@H]32)nc1	15.87	2.41
COc1ccc2c(c1)CC(C(=O)N(C)Cc1noc3c1CCCC3)CO2 (centres unmarked)	-7.729	6.27
O=C1CC[C@H]2[C@H](CCN2c2ncccn2)N1c1ccccc1	3.315	6.875
O=C(NCCCN1CCC(OC2CCCCC2)CC1)C1CCCC1	0.4926	7.173
CC(C(=O)NCc1cn2cc(Br)ccc2n1)S(C)(=O)=O (centres unmarked)	20	9.378
CCOC(=O)c1n[nH]cc1CN1CCOC(Cc2ccccc2)C1 (centres unmarked)	4.938	5.451
O=C(Nc1ccccc1OCCc1ccccn1)N1CC[C@@H](O)C1	8.458	1.098
CN(C)c1ccc(CNC(=O)c2ccc(Cl)cc2F)cc1	3.261	1.08
O=C(NCCc1cccnc1)NCCc1cccs1	3.797	2.447
Cc1occc1C(=O)NCC(=O)N(C)CCCOc1ccc(F)cc1	4.217	-3.88
Cc1cc(C(=O)N2CCCC(O)(CN3CCCC3)C2)ccc1Cl (centres unmarked)	0.5525	0.5423
CC(C)n1cc(CN2CCCN(C(=O)CC3CCCCC3)CC2)cn1	6.395	0.5788
CCCN1CCCn2nc(CNS(=O)(=O)c3cccc(F)c3)cc2C1	2.242	11.58
NC(=O)CN1CCC(C(=O)NCc2ccc3c(c2)OCCCO3)CC1	2.597	7.373
Cc1csc([C@H]2C[C@H]3CN(Cc4cc(C)on4)CC[C@@H]3O2)n1	1.105	2.356
c1cnc(NCc2ncn3c2CN(Cc2cccnc2)CCC3)nc1	3.743	8.899
COCc1noc(CN2C[C@H](C3CC3)[C@@H](N(C)C)C2)n1	1.554	8.35
Cc1ccc(CN2CCCn3nnc(COCC4CC4)c3C2)s1	8.197	6.184
Cc1cc(CNCC2(O)CCOCC2)ccc1Br	16.05	3.003
Cc1ccc(S(=O)(=O)NCCCN2CCC(O)CC2)c(F)c1	5.357	2.899
COc1cc(Oc2ccc(C#N)cn2)ccc1CN1CCCC1	8.155	6.496
CN(Cc1nccs1)C1CCN(c2cccc(-c3cscn3)c2)CC1	0.5236	-0.2237
Cn1nc2c(cc1=O)CN(Cc1nc3ccccc3c(=O)[nH]1)CC2	-4.036	3.997
COCCN1CCc2ncc(CN(C)C)n2CC1	4.908	-0.03506
O=C(N[C@H]1CN(Cc2cccs2)[C@@H]2CCCO[C@H]12)c1cccnc1	3.922	7.135
CC1CCN(C(=O)c2cnc(CC3CCCN(C)C3)cn2)CC1 (centres unmarked)	0.7491	1.605
CN(C)C(=O)CN1CCC2(CC1)COc1ccccc1S(=O)(=O)N(C)C2	6.542	6.366
Cc1ccc(C(O)CNCCn2cccn2)cc1C (centres unmarked)	-2.642	-2.285
Cc1cc(NC(=O)CN2CCOC(CN(C)C)C2)n(C)n1 (centres unmarked)	12.95	8.704
O=C(CC1CC1)N1C[C@@H]2CN(c3ccccc3)C(=O)[C@@H]2C1	6.796	4.967
CCc1cccc(N2CCC(NC(=O)c3cc[nH]n3)CC2)c1	3.383	-4.307
COc1ccc(C(C)Nc2ncnc3c2NC(=O)CN3)cc1 (centres unmarked)	3.125	0.9194
COC(=O)C1CN(CC(=O)Nc2cccc(OC)c2)c2ccccc21 (centres unmarked)	1.064	1.107
CCCc1n[nH]c(C2CN(C(=O)c3n[nH]c4ccccc34)CCO2)n1 (centres unmarked)	5.78	1.749
Cc1cccc(CN2C(=O)CCC23CCNCC3)n1	9.135	-1.641
Cc1nn(C)c(C)c1C1COCCN1C(=O)c1ccc(Cl)o1 (centres unmarked)	2.857	-0.3596
CO[C@@H]1CCN(S(=O)(=O)c2cn(C)cn2)[C@H]1Cc1cnn(C)c1	5.473	2.835

Once more, the final 9:

For Cc1cc(NC(=O)CN2CCOC(CN(C)C)C2)n(C)n1 (centres unmarked) the result was A: 12.95%; B: 8.704%.
For O=C(CC1CC1)N1C[C@@H]2CN(c3ccccc3)C(=O)[C@@H]2C1 the result was A: 6.796%; B: 4.967%.
For CCc1cccc(N2CCC(NC(=O)c3cc[nH]n3)CC2)c1 the result was A: 3.383%; B: -4.307%.
For COc1ccc(C(C)Nc2ncnc3c2NC(=O)CN3)cc1 (centres unmarked) the result was A: 3.125%; B: 0.9194%.
For COC(=O)C1CN(CC(=O)Nc2cccc(OC)c2)c2ccccc21 (centres unmarked) the result was A: 1.064%; B: 1.107%.
For CCCc1n[nH]c(C2CN(C(=O)c3n[nH]c4ccccc34)CCO2)n1 (centres unmarked) the result was A: 5.78%; B: 1.749%.
For Cc1cccc(CN2C(=O)CCC23CCNCC3)n1 the result was A: 9.135%; B: -1.641%.
For Cc1nn(C)c(C)c1C1COCCN1C(=O)c1ccc(Cl)o1 (centres unmarked) the result was A: 2.857%; B: -0.3596%.
For CO[C@@H]1CCN(S(=O)(=O)c2cn(C)cn2)[C@H]1Cc1cnn(C)c1 the result was A: 5.473%; B: 2.835%.